Laboratory results published in publication PMC7819943, “Rice protein-binding microarrays: a tool to detect cis-acting elements near promoter regions in rice”.
The other results are listed elsewhere or left out.

Target: T1, OsSMF1 (Oryza sativa, UniProt Q6ZLB0 1-436)
T1 sequence: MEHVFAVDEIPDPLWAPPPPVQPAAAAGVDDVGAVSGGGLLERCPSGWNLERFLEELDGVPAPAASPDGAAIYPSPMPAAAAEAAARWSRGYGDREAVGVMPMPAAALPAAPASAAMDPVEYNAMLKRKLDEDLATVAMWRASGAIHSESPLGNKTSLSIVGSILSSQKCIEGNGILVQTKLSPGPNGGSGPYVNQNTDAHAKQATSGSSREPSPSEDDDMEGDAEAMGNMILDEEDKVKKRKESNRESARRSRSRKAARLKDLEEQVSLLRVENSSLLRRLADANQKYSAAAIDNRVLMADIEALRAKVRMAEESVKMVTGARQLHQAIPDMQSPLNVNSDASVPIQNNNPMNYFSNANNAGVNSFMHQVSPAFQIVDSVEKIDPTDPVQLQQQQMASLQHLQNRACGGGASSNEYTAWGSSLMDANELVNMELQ
Experiment: protein-binding microarray (RPBM); PBS, 2% BSA, 51.3 ng/ul salmon testes DNA, 50 uM zinc acetate, 200 nM TF, 25 C, 1 h; high values mean tight binding
Conditions: protein: recombinant; tags: N-terminal polyhistidine and DsRed monomer fusion (pET32a); chain copies: 2; label: CyDye5-dUTP incorporated in the synthesized complementary strand; 3' TTTTT single-stranded linker to array surface; dsDNA, one strand shown
In short: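 Transcription factors were each fused at the N-terminus to a polyhistidine tag plus DsRed and expressed in E. coli BL21-CodonPlus before Ni–NTA purification. Binding to a double-stranded custom Agilent array was carried out with 200 nM protein at 25 °C for 1 h in PBS, 2% BSA, salmon testes DNA and 50 µM zinc acetate. The binding signal is per-feature fluorescence intensity, in arbitrary units, on an Axon 4000B scanner.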

Sequence	binding signal
TTATCAAAGCAAGCGGAATGGTGATGTACACTGACTCAACCGGAGTCACCTAGTGCAG	3730 fluorescence intensity (a.u.)
TGGGCGCGGGAACGTGTCGCCGACACGTGGGGTCCCAGCCCGGAGTCACCTAGTGCAG	5660 fluorescence intensity (a.u.)
GTTCTTAGTCTTTATTTACCTTGTAAAGTGAGGAGATTAACGGAGTCACCTAGTGCAG	22500 fluorescence intensity (a.u.)
CGCCCCACCTCGCCGACTCAGCTCCGGTGGCGCAGGATGACGGAGTCACCTAGTGCAG	3220 fluorescence intensity (a.u.)
ATAGTGGGCCCGCGCTGTCACGGGCACGTGGGCGGTGCACCGGAGTCACCTAGTGCAG	5200 fluorescence intensity (a.u.)
CTAGATCTAAATTTTAGAACCACGTAAGGAGTTCATACTTCGGAGTCACCTAGTGCAG	3720 fluorescence intensity (a.u.)
TCACTCACCACTAACCGCAAAACTCAAACATCACCTATCCCGGAGTCACCTAGTGCAG	4040 fluorescence intensity (a.u.)
TTTATGGCCACAATACCTAAGGGAATATGGCACGTGGCAACGGAGTCACCTAGTGCAG	5400 fluorescence intensity (a.u.)
CGAGGATTTGAGATCTGAGATGGCACGGACACTAGACAACCGGAGTCACCTAGTGCAG	3440 fluorescence intensity (a.u.)
ATACTGTCGAACAAGTTTGAGAACCTGAACAGTCGATTTGCGGAGTCACCTAGTGCAG	3280 fluorescence intensity (a.u.)
TGAATAATATATACGTGTATGTTCTTAGCGATCTAAACGCCGGAGTCACCTAGTGCAG	3390 fluorescence intensity (a.u.)
TTCGAAGATGCTCATAGGGGTAGGGTTTGCGTGCGTGTGTCGGAGTCACCTAGTGCAG	3720 fluorescence intensity (a.u.)
AAGGTGACGTCAATTTTAACATGAATATGACGTCATTACTCGGAGTCACCTAGTGCAG	14000 fluorescence intensity (a.u.)
CCGTCAGTAAACCACGAGATAAATTTATTAAGCCTAATTACGGAGTCACCTAGTGCAG	3230 fluorescence intensity (a.u.)
CTCGCGCGCCCCGCCCGTTTCGCCTCGGCCGCCTCCTCCACGGAGTCACCTAGTGCAG	3940 fluorescence intensity (a.u.)
ATTGCGACGTTTCTTCAGGTGACGAAAAGCCTGACGAGTACGGAGTCACCTAGTGCAG	4120 fluorescence intensity (a.u.)
ACCTCGTTTTGCGTATCTTCTCAATCTACTCAATCCACTTCGGAGTCACCTAGTGCAG	15300 fluorescence intensity (a.u.)
GCGTAGGCCGTGTGACGGCGTGACACCACCACTGACCACCCGGAGTCACCTAGTGCAG	5030 fluorescence intensity (a.u.)
GATGGGACTTAACATGCAGTTCAGGCCATATGCATTTCTGCGGAGTCACCTAGTGCAG	34000 fluorescence intensity (a.u.)
TGTATCTAACGTGTTGCGTTGTGAATGTAGGTGAATCTGTCGGAGTCACCTAGTGCAG	4490 fluorescence intensity (a.u.)
ATTACTTATGTTTTCACTGAAATAGCATGCCACCTAGGGACGGAGTCACCTAGTGCAG	3150 fluorescence intensity (a.u.)

Sequence	binding signal
TGGACACTTGGTGTTTTCATGGTTTTGTTAGTAAACTTTGCGGAGTCACCTAGTGCAG	36700 fluorescence intensity (a.u.)
TTTTGCTGACTAGGATGCCACATCATCAAAACTAGCCATGCGGAGTCACCTAGTGCAG	35000 fluorescence intensity (a.u.)
CGAAACTGATATGGTGTACGCTGTCACCGAATACTATCTCCGGAGTCACCTAGTGCAG	3830 fluorescence intensity (a.u.)
TCGGTGACGTAGTGAGTGACGCACGCTGTTGCAGTGCTCTCGGAGTCACCTAGTGCAG	4640 fluorescence intensity (a.u.)
AAAAGTCAATGACGTCAGATATTTAGGGACGGAGAGTATACGGAGTCACCTAGTGCAG	9290 fluorescence intensity (a.u.)
TTTGTTATGGCTAAACGATACATCTTACTGTAGTAATTTGCGGAGTCACCTAGTGCAG	6840 fluorescence intensity (a.u.)
AGTTGTCAACTTGTGACGATGTGCGTTGCTTTTGAGTTGGCGGAGTCACCTAGTGCAG	4280 fluorescence intensity (a.u.)
AGAGGGCAATGAGACTGACGATGTCACCGATGACGATATTCGGAGTCACCTAGTGCAG	3420 fluorescence intensity (a.u.)
AGAGTACAGAGGATACTCTGACTCATACTCTCTACGTCCACGGAGTCACCTAGTGCAG	7380 fluorescence intensity (a.u.)
CGCTCAATTCCGCTTTAATTTGGTGACTTGGCGATCGATCCGGAGTCACCTAGTGCAG	4420 fluorescence intensity (a.u.)
ACTCCAATGATGTGGCATTGAAGAGATCACCTGGGAGAGGCGGAGTCACCTAGTGCAG	8140 fluorescence intensity (a.u.)
GCCGGCTGCGTTCTTTTGAAACAAAATTTTCCCTTTGGACCGGAGTCACCTAGTGCAG	3860 fluorescence intensity (a.u.)
CGCCCAGCTCATGCACTGCTACCTGTATAGTACGTGTACACGGAGTCACCTAGTGCAG	3870 fluorescence intensity (a.u.)
GGTGAACAGTACGTCACGATATGTTAGAGGATCCTCTTCCCGGAGTCACCTAGTGCAG	6070 fluorescence intensity (a.u.)
GTGGAACCGCTGACACGATGTCATCTTCAGAAATGAGCAACGGAGTCACCTAGTGCAG	3180 fluorescence intensity (a.u.)
ATAATAAACTGAGAGGAGGATAGTAATATGTACTTAGTAACGGAGTCACCTAGTGCAG	48400 fluorescence intensity (a.u.)
CGAGGCGTGTGTCAGACCGCCTGTTGTCACCTAACCCACGCGGAGTCACCTAGTGCAG	3980 fluorescence intensity (a.u.)
GAGGGTACGGTACAAACTTTTATACACCGTCTGTCACGTTCGGAGTCACCTAGTGCAG	3150 fluorescence intensity (a.u.)
TCAGTCGGGATGGCGCTGTCACGCTGTCGGTTGATCGGTCCGGAGTCACCTAGTGCAG	3640 fluorescence intensity (a.u.)
ATTAACCCCAAACATCCTCTTACTCCTCAACTACACATCACGGAGTCACCTAGTGCAG	3210 fluorescence intensity (a.u.)
GTTCGTGGTCATCGTCACTCGCCGCTCCCCACATCCGCGCCGGAGTCACCTAGTGCAG	4780 fluorescence intensity (a.u.)

Reprinted at random: two records from the list
Sequence	binding signal
TGGACACTTGGTGTTTTCATGGTTTTGTTAGTAAACTTTGCGGAGTCACCTAGTGCAG	36700 fluorescence intensity (a.u.)
GTGGAACCGCTGACACGATGTCATCTTCAGAAATGAGCAACGGAGTCACCTAGTGCAG	3180 fluorescence intensity (a.u.)
